Experimental data: paper PMC10901353, “Identification of a potent and selective LAPTc inhibitor by RapidFire-Mass Spectrometry, with antichagasic activity” (PLOS Neglected Tropical Diseases, 2024)
“And” between values parts separate entries of the source, which are not always exact repeats. Identical values can stand only once.

What follows are compounds tested on Vero cells (assay: Cytotoxicity against infected Vero host cells in T. cruzi intracellular assay). Details: individual replicates.
Format: cell-based, African green monkey
Experimental: Briefly, these cells were maintained at 37°C and 5% CO2 in MEM supplemented with 10% FCS, sub-culturing every 2–3 days at a ratio of 1:5 after 5 min treatment with Trypsin-EDTA (Gibco).
This assay was performed as described with the only modification that treatment was 96 h instead of 72 h. Briefly, Vero cells were infected overnight with tissue culture derived T. cruzi trypomastigotes in T225 tissue culture flasks (MOI 5). Any remaining free trypomastigotes were washed away with serum free MEM and the infected Vero cells were harvested by trypsinisation. Compounds (250 nL in DMSO) were dispensed using LabCyte ECHO (Beckman Coulter Life Sciences, USA) into each well of Corning black flat bottomed 384-well plates (Corning, USA). […] The infected Vero cells were then plated into the plates containing the compounds, at 4,000 cells per well in MEM media with 1% FCS. […] The plates were imaged on a Perkin Elmer Operetta high-content imaging system using a 20× objective. Images were analyzed using the Columbus system (Perkin Elmer). The algorithm first identified the Vero nuclei followed by demarcation of the cytoplasm and identification of intracellular amastigotes. This algorithm reported percent infected Vero cell and total number of Vero cells. All potency determinations were carried out in at least three independent replicates and are reported as pEC50 +/- standard deviation. pEC50 = -log(EC50[M]).

| SMILES | Hill Slope (Vero) |
| --- | --- |
| COc1ccc2oc(C(=O)Nc3nc(-c4ccccn4)cs3)c(C)c2c1 [Compound 4] | 0.7 and 1.3 and 0.6 and 0.9 |
| Cc1ccc2nc(-c3ccc(NS(=O)(=O)c4cc(C(=O)O)c(Cl)cc4Cl)cc3)sc2c1 [Compound 5] | 4.2 and 2.3 and 3.9 and 2.9 |
| Nc1[nH]cnc1-c1nc(-c2ccccc2)cs1 [Compound 7] | 0.8 and 0.738 and 0.6 and 0.9 |
| COc1ccc(CC(=O)Nc2nc(-c3ccccn3)cs2)c(OC)c1 [Compound 12] | 1.2 |
| c1ccc(Cc2ccc(OCCn3ccnc3)cc2)cc1 [Compound 13] | 0.951 and 0.639 and 0.761 and 0.8 |
| N#CC(=Cc1cn(Cc2ccc(C(=O)O)o2)c2ccccc12)c1nc2ccccc2[nH]1 [Compound 15] | 2.0 and 1.4 and 11.0 |
| CCCS(=O)(=O)c1ccc(NS(=O)(=O)c2sc3ccc(Cl)cc3c2C)cc1 [Compound 24] | 1.3 and 0.8 and 1.0 and 1.2 |

These compounds were tested on HepG2 cells (assay: Cytotoxicity assay on human HepG2 cells (resazurin)). Details: individual replicates.
Format: cell-based

| SMILES | Hill (HepG2) |
| --- | --- |
| c1ccc(Cc2ccc(OCCn3ccnc3)cc2)cc1 [Compound 13] | 1.9 and 2.0 |
